PubChem BioAssay AID686937 – Drosophila RNAi Screening Center | 2013

Test: 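Genes whose loss weakens secretory pathway function in fly cells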 (primary screen)
Cells: Drosophila S2 cells expressing secreted horseradish peroxidase
Reagents: long dsRNA against Drosophila genes
Duration: about 5.5 days (5 days dsRNA, then 12 h reporter induction)
Conditions: reporter expression induced after 5 days of dsRNA, read 12 h later; inducer not stated
Measured: 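After 5 days of dsRNA and 12 h of reporter induction, medium peroxidase read by chemiluminescence and scored as per-plate z-score; higher values mean more reporter released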
Scale: z-score: higher = more reporter secreted into medium
In all, the deposit lists about 23,000 reagents; below is a random part of those with a known target gene and a result. 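Reduced-secretion tags in replicate 1 do not always agree with the z-scores; no criterion for assigning the tags was given.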 The numbers tell different reagents against one gene apart. A plus sign joins genes that one reagent is predicted to hit. No sequences are given here. The record does not give: the amount of reagent.

The opening 3 entries, ahead of the listing:
| gene knocked down | reagent | z-score, replicate 1 | z-score, replicate 2 | z-score, replicate 3 | z-score, replicate 4 | phenotype, replicate 1 |
| --- | --- | --- | --- | --- | --- | --- |
| CG6937 + btn | 1 | 0.3 | 0.37 | – | – | – |
| CG17300 | 1 | 0.27 | 0.48 | – | – | – |
| Nemp | 1 | 0.34 | 0.05 | – | – | – |

The listing, repeating the preview:
| gene knocked down | reagent | z-score, replicate 1 | z-score, replicate 2 | z-score, replicate 3 | z-score, replicate 4 | phenotype, replicate 1 |
| --- | --- | --- | --- | --- | --- | --- |
| CG6937 + btn | 1 | 0.3 | 0.37 | – | – | – |
| CG17300 | 1 | 0.27 | 0.48 | – | – | – |
| Nemp | 1 | 0.34 | 0.05 | – | – | – |
| Helz | 1 | 0.42 | 0.3 | – | – | – |
| CG6675 | 1 | -0.08 | 0.18 | – | – | – |
| CG2975 | 1 | 0.22 | 0.28 | – | – | – |
| lbm | 1 | 0.28 | 0.29 | – | – | – |
| TM9SF4 | 1 | 0.6 | 0.41 | – | – | – |
| CycD | 1 | -0.76 | -2.13 | – | – | – |
| CG15605 | 1 | 0.44 | 0.34 | – | – | – |
| CDK2AP1 | 1 | 0.36 | 0.47 | – | – | – |
| Men-b | 1 | 0.23 | 0.51 | – | – | – |
| CG4325 | 1 | -1.62 | -0.88 | – | – | reduced secretion |
| CG18538 | 1 | 0.53 | 0.31 | – | – | – |
| Rdh | 1 | -4.81 | -3.68 | – | – | reduced secretion |
| Rdh | 2 | -0.09 | -0.13 | -1.63 | -1.07 | reduced secretion |
| Acp63F | 1 | 0.31 | -0.05 | – | – | – |
| Fuca | 1 | 0.5 | 0.46 | – | – | – |
| CG2790 | 1 | 0.63 | 0.61 | – | – | – |
| CG4892 | 1 | -0.52 | 0.19 | – | – | – |
| ebd1 | 1 | -0.18 | -0.39 | – | – | – |
| Adsl | 1 | 0.17 | 0.35 | – | – | – |
| Rip11 | 1 | 0.19 | 0.19 | – | – | – |
| CG15498 | 1 | 0.51 | 0.53 | – | – | – |
| Ac76E | 1 | 0.1 | 0.2 | – | – | – |
| Ac76E | 2 | 0.15 | 0.34 | – | – | – |
| Ir94c | 1 | 0.41 | 0.5 | – | – | – |
| CG15023 | 1 | 0.53 | 0.6 | – | – | – |
| CG15279 | 1 | 0.44 | 0.34 | – | – | – |
| SuUR | 1 | 0.31 | 0.4 | – | – | – |
| RfC4 | 1 | 0.19 | 0.4 | – | – | – |
| Or85e | 1 | 0.22 | 0.61 | – | – | – |
| U3-55K | 1 | 0.1 | 0.08 | – | – | – |
| unc-4 | 1 | 0.44 | 0.63 | 0.7 | 0.6 | – |
| unc-4 | 2 | 0.62 | 0.11 | – | – | – |
| CG9386 | 1 | 0.5 | 0.73 | – | – | – |
| CG6923 | 1 | -0.36 | -0.16 | – | – | – |
| Dhx15 | 1 | -0.04 | 0 | – | – | – |
| CG31913 | 1 | 0.03 | 0.29 | – | – | – |
| lic | 1 | 0.03 | -0.49 | – | – | – |
| CG17598 | 1 | 0.39 | 0.34 | – | – | – |
| CG34029 | 1 | 0.58 | 0.29 | – | – | – |
| Erasp | 1 | 0.23 | 0.47 | – | – | – |
| CG33494 | 1 | 0.76 | 0.36 | – | – | – |
| Cpr50Ca | 1 | 0.47 | -0.04 | – | – | – |
| Cpr50Ca | 2 | 0.4 | 0.43 | – | – | – |
| Cpr50Ca | 3 | 0.3 | 0.39 | – | – | – |
| Uro | 1 | 0.57 | 0.35 | – | – | – |
| klu | 1 | -0.07 | 0.08 | – | – | – |
| CG6674 | 1 | 0.47 | 0.25 | – | – | – |
| CG14262 | 1 | 0.25 | 0.31 | – | – | – |
| CG15831 (retired record) | 1 | 0.35 | 0.07 | – | – | – |
| IntS2 | 1 | 0.76 | 0.95 | – | – | – |
| CG12826 | 1 | 0.34 | 0.39 | – | – | – |
| CG7091 | 1 | 0.63 | 0.2 | – | – | – |
| CG7091 | 2 | 0.36 | -0.13 | – | – | – |
| Mdr49 | 1 | 0.03 | 0.24 | – | – | – |
| Jheh3 | 1 | 0.73 | 0.39 | – | – | – |
| CG10041 | 1 | 0.57 | 0.48 | – | – | – |
| Fbp1 | 1 | -0.33 | 0 | – | – | – |
| ND6 (retired record) | 1 | 0.7 | -0.19 | -0.07 | 0.4 | – |
| Cyp6a22 | 1 | 0.28 | 0.34 | – | – | – |
| RhoGAP1A | 1 | 0.5 | 0.25 | – | – | – |
| RhoGAP1A | 2 | 0.35 | 0.16 | – | – | – |
| Gem4b + Gem4c | 1 | 0.38 | -0.1 | – | – | – |
| Ykt6 | 1 | -2.23 | -4.03 | – | – | reduced secretion |
| bowl | 1 | 0.05 | 0.19 | – | – | – |
| CG11349 | 1 | 0.22 | 0.47 | – | – | – |
| CG6567 + CG42394 | 1 | -0.14 | 0.36 | – | – | – |
| CaMKII | 1 | 0.69 | 0.37 | – | – | – |
| Ugt36D1 | 1 | 0.18 | 0.29 | – | – | – |
| CG42376 + cin | 1 | 0.25 | 0.25 | – | – | – |
| CG9106 | 1 | 0.2 | 0.42 | – | – | – |
| cac | 1 | 0.26 | 0.19 | – | – | – |
| cac | 2 | -0.01 | 0.23 | – | – | – |
| Naa30A | 1 | -1.41 | -0.98 | – | – | – |
| CG9114 | 1 | 0.26 | 0.49 | – | – | – |
| CG32985 | 1 | 0.27 | 0.34 | – | – | – |
| CG9519 | 1 | 0.44 | 0.37 | – | – | – |
| CG17982 | 1 | 0.32 | 0.72 | – | – | – |
| Wwox | 1 | 0.14 | 0.36 | -0.91 | -0.73 | – |
| Wwox | 2 | 0.22 | 2.39 | – | – | – |
